The nature of this test: qHTS Assay to Find Inhibitors of Chronic Active B-Cell Receptor Signaling. The note with it: ABC-DLBCL IkBa-CBG/CBR reporter, luminescence ratio (green luciferase fused to IkBa over red control in TMD8 lymphoma cells), 4 h. The gist of the method: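 Concentration-response series (up to 46 uM) were applied to TMD8 dual-reporter cells for 4 h at 37C with doxycycline. Green/red ratio, after filter-overlap correction, defined %Activity; red signal alone was normalised to basal cells and zero luminescence.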
(qHTS replaces the single test concentration by a dilution series.)

[1] abbreviates: measured here: CBR red luminescence, cell number.
[2] abbreviates: measured here: IkBa-CBG green luminescence.

This is an account of results in PubChem BioAssay AID493014 (National Center for Advancing Translational Sciences (NCATS), 2011).

The structures appear in SMILES notation. Some of the results follow. Shown are side measurements of this screen, not its main read-out; they come without a call. Compounds called inactive in the main read-out are mostly missing here. The note in brackets gives the kind of curve behind each potency; many fits are weak. Peptide text beside a SMILES is read from it. * marks the point of attachment. PhAc = O=C(Cc1ccccc1)*; OBn = c1ccc(CO*)cc1

As usually defined, the AC50 is the concentration giving half of the maximal activity seen. For the compound `CCCCn1c(SCC(=O)N2CCC(C)CC2)nc2ccsc2c1=O`, under setting [1], the concentration at half-maximal activity (AC50) is 12.6 µM [falling, partial curve, poor fit].
`N#Cc1ncc(C(F)(F)F)cc1Sc1ccc(N)cc1`: the AC50 under setting [1] is 5.17 µM [rising, partial curve, poor fit].
The same measure, in the same setting: to `CC(C)N(Cc1nc(-c2ccc(Cl)cc2)no1)C(=O)c1cccs1` belongs 20.6 µM [rising, partial curve, poor fit].
For `COC(=O)C(NC(=O)c1ccco1)(Nc1nc(C)cs1)C(F)(F)F` (configuration not stated), the AC50 under setting [1] is 35.5 µM [rising, single point].
On to `CC1(C)CC(=O)CC2(C1)NCC(c1ccccc1Cl)c1c2[nH]c2ccccc12` (configuration not stated), for which, under setting [1], the AC50 is 25.1 µM [falling, single point].
`Cc1nn(C)c(C)c1NC(=O)c1cc2nc(-c3ccco3)cc(C(F)(F)F)n2n1`: under setting [2], the AC50 is 14.1 µM [rising, partial curve, poor fit].
Consider `O=C(/C=C/Sc1ccc(C(F)(F)F)cn1)c1ccccc1`, for which the AC50 under setting [1] was 17.8 µM [rising, partial curve].
For `Cc1c(Cc2ccccc2)c(=O)oc2cc(O)cc(O)c12`, under setting [1], the AC50 is 11.2 µM [falling, single point].
Same read-out and setting: the value for `CCOc1ncccc1C(=O)OCC(=O)c1ccc(Br)s1` was 23.1 µM [rising, single point]; that for `Cc1cc(C)c(O)c(C2(O)C(=O)c3ccccc3C2=O)c1` was 10 µM [rising, partial curve, poor fit]; that for `O=C(c1ccc(S(=O)(=O)Cc2ccccc2F)c([N+](=O)[O-])c1)N1CCCC1` was 25.1 µM [falling, single point].
As to `O=C(Oc1ccc2c(c1)OCO2)c1ccc(F)cc1Cl`, under setting [1], the AC50 is 15.8 µM [rising, partial curve, poor fit].
As for `CCOC(=O)N1CCN(C(=S)NC2CCCCC2)CC1`, under setting [1], the AC50 is 20.6 µM [rising, partial curve, poor fit].
Turning to `CCCCc1ccc(NC(=O)C2CCN(S(C)(=O)=O)CC2)cc1`, under setting [1], the half-maximal activity concentration (AC50) is 17.8 µM [rising, partial curve, poor fit].
For `O=C(Nc1nnc(Cc2ccccc2F)s1)c1ccccc1Cl`, the AC50 under setting [1] is 6.31 µM [falling, single point].
As for `CC(=O)N(C(C)=O)c1c(N2CCCC2)c2ccccc2oc1=O`, the AC50 under setting [1] was 11.2 µM [falling, single point].
Regarding `CCC(C)(C)c1ccc(OCCCC[n+]2ccccc2)c(C(C)(C)CC)c1`, the AC50 under setting [1] was 35.5 µM [falling, single point].
The same measure, in the same setting: to `O=C(Nc1cccc(Cl)c1)OCCOc1ccccc1` belongs 1.41 µM [rising, partial curve, poor fit].
`COc1ccc(S(=O)(=O)N2CCOCC2)cc1NC(=O)CSc1cccc[n+]1[O-]`: under setting [1], the half-maximal activity concentration (AC50) was 35.5 µM [falling, single point].
The same measure, in the same setting: to `O=C(CNC(=O)Cc1ccccc1)NCC(=O)OCc1ccccc1` (PhAc-Gly-Gly-OBn) belongs 4.47 µM [rising, partial curve].
With `COC(=O)c1ccc(NC(=O)CC2C(=O)N(c3ccc(C)cc3)C(=O)N2CC(C)C)cc1` (configuration not stated), the AC50 under setting [1] was 11.6 µM [rising, partial curve, poor fit].
For `CCCCCC(=O)NNC(=S)NC(=O)c1ccc([N+](=O)[O-])cc1`, the AC50 under setting [1] is 17.8 µM [rising, single point].
On the same count and under the same terms, the value for `O=C(O)c1ccccc1C(=O)NNc1ccc(F)cc1F` was 20 µM [rising, partial curve, poor fit]; that for `CCc1ccc(NC(=O)c2ccc3c(=O)n4c(nc3c2)CCCCC4)cc1` was 14.1 µM [falling, single point]; that for `COc1ccc(NC(=O)Nc2ccccc2C(=O)N2CCCC2)cc1` was 4.11 µM [falling, single point].
Turning to `COc1ccccc1NC(=O)CSc1nc(=O)n2cc(C)ccc2n1`, the AC50 under setting [1] was 23.1 µM [falling, single point].
As to `COc1ccccc1C(=O)NC(=O)COC(=O)C1CC1C` (configuration not stated), under setting [1], the AC50 is 14.6 µM [falling, partial curve].
Consider `COC(=O)c1ccc(Cn2c(O)c(N=NC(N)=S)c3ccccc32)o1`, for which the AC50 under setting [2] is 25.1 µM [falling, single point].
Take `Cc1nnnn1/C(=C\c1ccccc1)C(=O)OCC(=O)N(C)C1CCS(=O)(=O)C1` (configuration not stated): the AC50 under setting [1] is 15.8 µM [falling, single point].
For `Cc1cccc(C(=O)Nc2ccccc2C(=O)OCc2c(C)noc2C)c1`, the AC50 under setting [1] was 1.12 µM [rising, full curve, poor fit].
Turning to `CCOC(=O)c1cc(-c2ccc(N3CCOCC3)cc2)nn1-c1ccccc1C(=O)O`, the AC50 under setting [1] was 0.0891 µM [rising, full curve, poor fit].
Still for that read-out and setting: the value for `COc1ccc2cc1Oc1ccc(cc1)CC1c3c(cc(OC)c4c3Oc3cc5c(cc3O4)CCNC5C2)CCN1C` (configuration not stated) was 17.8 µM [falling, partial curve]; that for `CCOC(=O)CSc1nnc(-c2ccco2)n1C` was 25.1 µM [rising, single point]; that for `COc1ccc(/C(C)=N/OC/C(O)=C(\C#N)c2nc3ccccc3[nH]2)cc1` was 4.61 µM [falling, partial curve].
Turning to `COc1ccccc1NCC(=O)c1ccc(Cl)cc1`, the AC50 under setting [1] is 31.6 µM [rising, single point].
Turning to `C/C(=N\NC(=S)NC1CCCCC1)c1ccc(Cl)c(Cl)c1`, the AC50 under setting [1] was 15.8 µM [falling, partial curve].
As to `Cn1c(=O)c2c(nc(NCc3ccc4c(c3)OCO4)n2Cc2ccc(F)cc2)n(C)c1=O`, the AC50 under setting [1] is 14.6 µM [falling, single point].
`CCOC(=O)CC(NC(=O)CCc1c(C)nc2nc(C)nn2c1C)c1ccc(OC(C)C)cc1` (configuration not stated): the AC50 under setting [1] is 0.501 µM [rising, full curve, poor fit].
For the compound `O=C(CCc1ccccc1)NC(c1cccs1)c1cc(Cl)c2cccnc2c1O` (configuration not stated), under setting [1], the AC50 is 35.5 µM [rising, single point].
As for `CCN1CCN(Cc2cccc(Oc3ccc(Cl)cc3)c2)CC1`, the half-maximal activity concentration (AC50) under setting [1] is 29.1 µM [falling, single point].
Consider `COc1ccc(-c2csc(-c3cccs3)n2)cc1OC`, for which the AC50 under setting [1] was 17.8 µM [rising, single point].
Regarding `O=C(CNC(=O)C(c1ccccc1)c1ccccc1)N/N=C\c1cccc(O)c1`, under setting [1], the AC50 was 12.6 µM [falling, partial curve, poor fit].
For `Cc1ccc(-n2ncc(-c3nn[nH]n3)c2N)cc1`, the AC50 under setting [1] is 2.51 µM [rising, partial curve, poor fit].
Consider `C=C(C)CSc1nc2c(cc1C#N)CCC2`, for which, under setting [1], the AC50 was 8.91 µM [rising, partial curve, poor fit].
As for `COc1ccc(CCNC(=O)/C(C#N)=C/c2ccc(OCC(=O)NCC3CCCO3)cc2)cc1OC` (configuration not stated), under setting [1], the AC50 was 5.62 µM [rising, partial curve, poor fit].
Turning to `O=C(Nc1ccc2c(c1)OCO2)c1cc2n(n1)C(C(F)(F)F)CC(c1ccccc1)N2` (configuration not stated), under setting [1], the AC50 is 0.398 µM [rising, full curve, poor fit].
Turning to `CCCCN(CCCC)C(=O)CSc1nnc2n(C)c(=O)c3c4c(sc3n12)CCCC4`, the AC50 under setting [1] was 2.59 µM [rising, partial curve, poor fit].
On the same count and under the same terms, to `COC(=O)CCC/C=C1/SCC(NC(=O)c2ccccc2)C1=O` (configuration not stated) belongs 29.1 µM [falling, single point]; to `Cc1cccc(OCC(=O)Nc2cccc(C(=O)Nc3ccccc3C(=O)O)c2)c1`, 20.6 µM [falling, single point]; to `O=C(NNC(=O)c1cc(Br)c(Br)s1)c1csc(N2CCOCC2)n1`, 7.31 µM [falling, partial curve, poor fit].
Take `O=C(Nc1ccc(OCC(=O)N2CCOCC2)cc1)c1cccc(Cl)c1`: the AC50 under setting [1] is 35.5 µM [rising, single point].
In the case of `O=C(NCCc1ccc(Cl)cc1)C1CCN(C(=O)c2sccc2-n2cccc2)CC1`, the AC50 under setting [1] is 9.2 µM [falling, single point].
Regarding `O=C(Nc1ccccn1)c1onc2c1CCCC2`, under setting [1], the AC50 is 13 µM [falling, partial curve].
For the compound `Cc1ccc2c(c1)Oc1ccc(NC(=O)CCl)cc1C(=O)N2`, the concentration at half-maximal activity (AC50) is 6.31 µM [falling, single point] under setting [1] and 22.4 µM [falling, single point] under setting [2].
As to `Cc1nn(CCC(=O)NNC(=S)Nc2ccccc2)c(C)c1Br`, under setting [2], the AC50 was 9.2 µM [falling, partial curve].
For the compound `Nc1c(C(=O)Nc2ccc3c(c2)OCCO3)nnn1Cc1ccc(Cl)cc1`, under setting [1], the AC50 was 29.1 µM [rising, single point].
With `O=C(COC(=O)/C=C/c1ccccc1)NNC(=O)c1ccc([N+](=O)[O-])cc1`, under setting [1], the AC50 is 29.1 µM [rising, single point].
Regarding `NC(N)=NN=C1CCCCCCCCCCC1`, the AC50 under setting [1] was 35.5 µM [falling, single point].
Turning to `Cc1ccc(-c2cc(-c3cccs3)[nH]n2)c(O)c1`, the half-maximal activity concentration (AC50) under setting [1] is 16.4 µM [falling, single point].
With `Cc1c(C(=O)OCC(C)C)[nH]c2c1C(=O)CC(c1cccs1)C2` (configuration not stated), the AC50 under setting [1] is 5.17 µM [rising, full curve] and the AC50 under setting [2] is 13 µM [falling, partial curve].
Consider `CC1=C(C(=O)N2CCOCC2)C(c2cc(C)cs2)NC(=O)N1` (configuration not stated), for which the AC50 under setting [1] is 2.91 µM [rising, partial curve, poor fit].
Take `CC1=C(C(=O)Nc2cccc(C(=O)NC3CCCC(C)C3C)c2)SCCO1` (configuration not stated): the AC50 under setting [1] was 20 µM [falling, single point].
`O=C(CCCOc1ccc(Cl)cc1Cl)N/N=C/c1ccccc1`: the AC50 under setting [1] is 9.2 µM [rising, single point].
Regarding `O=C(Nc1nc(COc2ccccc2)cs1)c1ccccc1F`, the half-maximal activity concentration (AC50) under setting [1] is 29.1 µM [falling, single point].
For the compound `COc1cn(-c2ccccc2)nc1C(=O)Nc1ccccc1`, under setting [1], the AC50 is 22.4 µM [falling, single point].
